Test results: the supplement of paper PMC11006884
The entries are a selection whose mix differs from that of the whole data set. Single values of this set are uncertain.

Amino acid sequences for entries named in this document (tags omitted). A change or cut given only in a name is not applied to a line headed by its entry.
UniProt Q15029: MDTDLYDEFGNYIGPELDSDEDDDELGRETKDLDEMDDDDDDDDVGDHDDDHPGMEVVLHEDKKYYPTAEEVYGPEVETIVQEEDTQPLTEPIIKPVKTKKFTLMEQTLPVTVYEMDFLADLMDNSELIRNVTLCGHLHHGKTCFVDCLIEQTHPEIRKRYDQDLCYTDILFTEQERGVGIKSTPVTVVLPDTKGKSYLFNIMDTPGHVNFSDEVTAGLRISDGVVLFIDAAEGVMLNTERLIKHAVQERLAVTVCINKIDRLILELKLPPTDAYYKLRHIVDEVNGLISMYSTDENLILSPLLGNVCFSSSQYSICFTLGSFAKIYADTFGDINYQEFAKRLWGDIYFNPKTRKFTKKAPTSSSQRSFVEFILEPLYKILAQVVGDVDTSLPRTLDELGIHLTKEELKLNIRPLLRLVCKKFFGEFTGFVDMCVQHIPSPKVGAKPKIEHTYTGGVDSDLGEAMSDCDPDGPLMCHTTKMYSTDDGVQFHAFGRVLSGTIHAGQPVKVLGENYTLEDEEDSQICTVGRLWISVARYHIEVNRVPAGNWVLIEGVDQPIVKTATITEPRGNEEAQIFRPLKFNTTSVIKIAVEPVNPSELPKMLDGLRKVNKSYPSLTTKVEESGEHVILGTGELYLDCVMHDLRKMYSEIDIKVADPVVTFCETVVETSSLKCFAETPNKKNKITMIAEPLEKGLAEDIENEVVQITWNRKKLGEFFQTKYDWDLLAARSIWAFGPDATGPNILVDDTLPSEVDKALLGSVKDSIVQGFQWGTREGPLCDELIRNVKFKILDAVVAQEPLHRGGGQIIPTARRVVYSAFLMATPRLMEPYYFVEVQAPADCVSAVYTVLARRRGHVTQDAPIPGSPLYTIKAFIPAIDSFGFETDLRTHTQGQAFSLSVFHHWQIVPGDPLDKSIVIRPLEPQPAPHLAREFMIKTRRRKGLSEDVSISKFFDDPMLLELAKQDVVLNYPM
UniProt Q2T9J0: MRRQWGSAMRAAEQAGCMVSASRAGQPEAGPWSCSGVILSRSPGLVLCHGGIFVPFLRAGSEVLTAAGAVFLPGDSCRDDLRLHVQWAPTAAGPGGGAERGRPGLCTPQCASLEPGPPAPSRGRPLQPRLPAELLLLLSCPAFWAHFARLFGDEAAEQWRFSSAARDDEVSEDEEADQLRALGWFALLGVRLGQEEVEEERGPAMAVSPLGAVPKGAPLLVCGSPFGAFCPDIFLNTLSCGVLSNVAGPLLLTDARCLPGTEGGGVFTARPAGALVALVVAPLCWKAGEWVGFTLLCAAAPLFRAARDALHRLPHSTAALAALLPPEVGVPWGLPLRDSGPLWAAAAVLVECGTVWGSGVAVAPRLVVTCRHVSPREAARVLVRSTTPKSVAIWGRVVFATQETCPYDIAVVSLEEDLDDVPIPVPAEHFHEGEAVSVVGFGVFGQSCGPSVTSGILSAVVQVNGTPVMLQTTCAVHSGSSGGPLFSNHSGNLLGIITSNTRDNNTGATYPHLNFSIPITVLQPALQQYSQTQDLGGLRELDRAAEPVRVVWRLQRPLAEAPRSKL
UniProt Q15067: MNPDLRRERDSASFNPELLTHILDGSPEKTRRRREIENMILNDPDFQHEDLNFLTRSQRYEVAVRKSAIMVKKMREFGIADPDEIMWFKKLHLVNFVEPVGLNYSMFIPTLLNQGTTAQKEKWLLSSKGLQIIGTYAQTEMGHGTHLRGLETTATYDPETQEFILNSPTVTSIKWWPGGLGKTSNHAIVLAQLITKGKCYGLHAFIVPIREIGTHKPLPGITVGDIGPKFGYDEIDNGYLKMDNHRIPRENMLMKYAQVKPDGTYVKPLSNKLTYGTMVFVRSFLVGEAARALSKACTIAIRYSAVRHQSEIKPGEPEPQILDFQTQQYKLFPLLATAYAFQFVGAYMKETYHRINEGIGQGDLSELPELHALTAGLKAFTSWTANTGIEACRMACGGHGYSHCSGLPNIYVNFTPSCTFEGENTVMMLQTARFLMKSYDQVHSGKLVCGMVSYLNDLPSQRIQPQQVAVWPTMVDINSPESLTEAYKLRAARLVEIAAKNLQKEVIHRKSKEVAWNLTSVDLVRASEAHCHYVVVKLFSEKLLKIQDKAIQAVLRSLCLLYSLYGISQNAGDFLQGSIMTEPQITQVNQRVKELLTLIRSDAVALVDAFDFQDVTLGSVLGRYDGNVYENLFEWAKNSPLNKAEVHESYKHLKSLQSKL
UniProt Q15424: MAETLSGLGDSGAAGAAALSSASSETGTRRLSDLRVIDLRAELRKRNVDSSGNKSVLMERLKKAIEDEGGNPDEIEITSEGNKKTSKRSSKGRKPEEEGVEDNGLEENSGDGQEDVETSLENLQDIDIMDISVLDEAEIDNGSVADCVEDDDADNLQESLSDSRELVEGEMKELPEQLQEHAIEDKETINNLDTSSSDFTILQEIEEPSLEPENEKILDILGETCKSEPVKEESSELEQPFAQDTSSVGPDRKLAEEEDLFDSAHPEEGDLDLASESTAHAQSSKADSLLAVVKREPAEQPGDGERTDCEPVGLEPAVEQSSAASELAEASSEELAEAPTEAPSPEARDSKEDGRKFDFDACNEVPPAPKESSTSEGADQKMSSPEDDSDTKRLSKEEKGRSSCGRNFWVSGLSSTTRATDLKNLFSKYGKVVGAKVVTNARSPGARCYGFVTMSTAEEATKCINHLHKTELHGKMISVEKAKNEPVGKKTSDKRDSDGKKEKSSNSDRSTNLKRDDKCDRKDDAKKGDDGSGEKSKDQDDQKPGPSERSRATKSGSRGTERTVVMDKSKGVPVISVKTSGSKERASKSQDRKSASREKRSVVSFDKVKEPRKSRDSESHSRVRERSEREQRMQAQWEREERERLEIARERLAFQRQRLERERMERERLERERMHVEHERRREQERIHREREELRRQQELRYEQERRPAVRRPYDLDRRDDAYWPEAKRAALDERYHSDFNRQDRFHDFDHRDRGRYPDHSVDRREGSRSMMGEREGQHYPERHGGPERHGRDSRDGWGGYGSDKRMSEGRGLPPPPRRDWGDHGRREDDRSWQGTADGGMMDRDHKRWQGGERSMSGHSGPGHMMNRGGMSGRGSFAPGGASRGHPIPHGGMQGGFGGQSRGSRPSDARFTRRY
UniProt Q15283: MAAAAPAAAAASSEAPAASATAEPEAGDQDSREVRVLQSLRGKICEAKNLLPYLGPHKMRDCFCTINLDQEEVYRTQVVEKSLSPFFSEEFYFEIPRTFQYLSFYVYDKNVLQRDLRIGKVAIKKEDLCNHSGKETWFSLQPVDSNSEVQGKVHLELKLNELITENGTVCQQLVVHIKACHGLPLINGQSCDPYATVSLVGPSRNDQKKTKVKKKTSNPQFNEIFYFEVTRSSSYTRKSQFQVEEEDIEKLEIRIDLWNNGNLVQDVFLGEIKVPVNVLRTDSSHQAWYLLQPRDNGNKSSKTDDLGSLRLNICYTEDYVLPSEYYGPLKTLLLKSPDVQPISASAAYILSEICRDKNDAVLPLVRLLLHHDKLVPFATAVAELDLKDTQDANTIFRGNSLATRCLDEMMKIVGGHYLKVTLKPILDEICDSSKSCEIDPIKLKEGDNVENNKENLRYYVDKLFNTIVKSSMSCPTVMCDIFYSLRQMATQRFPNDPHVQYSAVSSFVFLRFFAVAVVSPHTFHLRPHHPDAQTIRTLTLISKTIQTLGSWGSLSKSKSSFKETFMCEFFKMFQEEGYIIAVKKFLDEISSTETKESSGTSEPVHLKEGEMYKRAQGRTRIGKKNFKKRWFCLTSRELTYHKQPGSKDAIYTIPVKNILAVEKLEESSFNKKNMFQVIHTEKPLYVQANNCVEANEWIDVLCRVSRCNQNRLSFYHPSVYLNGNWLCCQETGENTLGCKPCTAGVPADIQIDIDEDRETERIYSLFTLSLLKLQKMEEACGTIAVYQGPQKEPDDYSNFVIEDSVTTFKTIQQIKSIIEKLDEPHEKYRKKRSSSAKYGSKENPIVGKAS
UniProt Q4G0F5, whole entry: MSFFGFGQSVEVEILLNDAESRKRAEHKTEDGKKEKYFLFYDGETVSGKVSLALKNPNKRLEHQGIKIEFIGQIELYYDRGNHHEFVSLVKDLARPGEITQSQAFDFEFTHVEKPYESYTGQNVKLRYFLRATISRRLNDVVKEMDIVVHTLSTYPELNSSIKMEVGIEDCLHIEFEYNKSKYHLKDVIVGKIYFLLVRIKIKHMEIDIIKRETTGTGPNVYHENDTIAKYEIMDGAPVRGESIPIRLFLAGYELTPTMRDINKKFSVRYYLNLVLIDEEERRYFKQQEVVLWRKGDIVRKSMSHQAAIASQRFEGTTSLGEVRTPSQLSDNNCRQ
UniProt Q16527: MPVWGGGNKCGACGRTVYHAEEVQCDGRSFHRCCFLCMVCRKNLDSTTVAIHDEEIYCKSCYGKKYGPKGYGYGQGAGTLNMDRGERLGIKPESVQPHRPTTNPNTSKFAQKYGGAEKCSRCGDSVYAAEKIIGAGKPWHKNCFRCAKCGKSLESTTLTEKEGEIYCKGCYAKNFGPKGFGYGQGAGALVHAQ
UniProt Q16352: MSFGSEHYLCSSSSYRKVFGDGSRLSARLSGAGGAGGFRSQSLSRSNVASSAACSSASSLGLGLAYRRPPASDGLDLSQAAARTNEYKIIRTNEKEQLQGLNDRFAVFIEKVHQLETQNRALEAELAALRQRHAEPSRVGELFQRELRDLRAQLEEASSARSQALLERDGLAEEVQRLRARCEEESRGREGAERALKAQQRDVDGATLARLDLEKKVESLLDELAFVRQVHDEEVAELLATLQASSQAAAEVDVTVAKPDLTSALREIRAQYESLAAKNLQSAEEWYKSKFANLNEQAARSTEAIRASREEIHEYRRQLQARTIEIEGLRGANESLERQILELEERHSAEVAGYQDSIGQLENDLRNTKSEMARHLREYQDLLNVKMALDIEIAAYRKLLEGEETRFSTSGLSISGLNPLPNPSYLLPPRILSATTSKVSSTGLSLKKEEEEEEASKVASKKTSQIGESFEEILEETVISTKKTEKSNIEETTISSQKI
UniProt Q16134: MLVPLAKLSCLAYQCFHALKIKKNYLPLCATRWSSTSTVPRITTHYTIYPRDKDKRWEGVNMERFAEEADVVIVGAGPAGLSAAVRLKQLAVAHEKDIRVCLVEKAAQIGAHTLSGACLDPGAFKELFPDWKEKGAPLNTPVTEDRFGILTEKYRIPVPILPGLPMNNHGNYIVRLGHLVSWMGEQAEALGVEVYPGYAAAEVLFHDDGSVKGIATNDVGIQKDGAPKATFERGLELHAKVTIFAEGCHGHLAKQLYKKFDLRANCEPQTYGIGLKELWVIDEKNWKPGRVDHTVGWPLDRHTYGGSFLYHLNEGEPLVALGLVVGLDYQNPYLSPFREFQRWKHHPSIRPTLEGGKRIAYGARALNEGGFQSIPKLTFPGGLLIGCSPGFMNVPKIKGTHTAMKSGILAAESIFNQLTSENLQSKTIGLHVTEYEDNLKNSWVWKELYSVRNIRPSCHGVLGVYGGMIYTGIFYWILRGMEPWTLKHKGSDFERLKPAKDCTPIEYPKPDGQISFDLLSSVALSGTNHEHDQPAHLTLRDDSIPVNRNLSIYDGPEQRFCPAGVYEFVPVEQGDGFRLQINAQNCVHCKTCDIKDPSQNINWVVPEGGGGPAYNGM
UniProt Q16643: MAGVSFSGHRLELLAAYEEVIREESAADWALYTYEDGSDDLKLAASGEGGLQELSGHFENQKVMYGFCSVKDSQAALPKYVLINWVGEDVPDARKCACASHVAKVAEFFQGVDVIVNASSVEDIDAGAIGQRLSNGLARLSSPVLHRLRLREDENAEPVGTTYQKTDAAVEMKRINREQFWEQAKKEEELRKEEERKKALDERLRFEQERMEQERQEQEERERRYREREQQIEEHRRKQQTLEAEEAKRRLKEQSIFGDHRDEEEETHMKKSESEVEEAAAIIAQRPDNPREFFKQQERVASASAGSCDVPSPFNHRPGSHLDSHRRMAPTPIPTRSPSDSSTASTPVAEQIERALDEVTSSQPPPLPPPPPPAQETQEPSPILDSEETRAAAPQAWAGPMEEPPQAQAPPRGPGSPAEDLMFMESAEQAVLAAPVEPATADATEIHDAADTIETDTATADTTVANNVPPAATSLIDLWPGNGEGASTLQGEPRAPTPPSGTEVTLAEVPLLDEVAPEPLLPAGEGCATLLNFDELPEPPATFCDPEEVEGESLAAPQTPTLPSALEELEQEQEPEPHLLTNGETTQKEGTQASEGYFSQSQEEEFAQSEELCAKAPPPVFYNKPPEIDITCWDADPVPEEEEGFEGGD
UniProt Q15834: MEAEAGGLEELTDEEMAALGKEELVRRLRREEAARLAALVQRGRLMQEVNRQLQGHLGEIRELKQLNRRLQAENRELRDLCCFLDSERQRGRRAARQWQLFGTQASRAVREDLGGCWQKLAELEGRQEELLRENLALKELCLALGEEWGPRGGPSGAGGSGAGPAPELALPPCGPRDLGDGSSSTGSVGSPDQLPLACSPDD

The targets below were run with COC(=O)/C=C/c1ccccc1 [methyl cinnamate] (assay: log2 ratio of iodoacetamide-alkyne labeling of the cysteine site, DMSO over compound (competition); higher = stronger covalent engagement of the cysteine by the compound, active = 1 or more). Settings: 500 µM; treatment time 1 h; system: HEK293T cell lysate.
Procedure, shortened: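 HEK293T lysate (2 mg/mL) was treated with DMSO or electrophile (500 µM, 1 h, ambient temperature), then iodoacetamide alkyne (1 h), clicked to sCIP-TMT reagents, pooled, trypsin-digested overnight at 37 °C, streptavidin-enriched and acid-eluted. Peptides were run on Orbitrap Eclipse LC-MS/MS with FAIMS and quantified in FragPipe. The log2 competition ratio per cysteine is mean control-channel over mean compound-channel reporter intensity. Duplicate channels and three replicates were used, and cysteines quantified in only one replicate were excluded.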

log2 ratio of iodoacetamide-alkyne labeling, inactive:
EFTUD2 C144 (UniProt Q15029) 0.0118
TYSND1 C77 (UniProt Q2T9J0) 0.096
UniProt Q16512_C602 -0.24
ACOX1 C449 (UniProt Q15067) 0.0541
SAFB C448 (UniProt Q15424) 0.0373
RASA2 C314 (UniProt Q15283) 0.211
VPS26B C334 (UniProt Q4G0F5) 0.648
EFTUD2 C663 (UniProt Q15029) -0.346
LLGL1 C725 (UniProt Q15334) 0.117
CSRP2 C122 (UniProt Q16527) -0.045
UniProt Q16352_C10 0.111
ETFDH C592 (UniProt Q16134) 0.0771
DBN1 C613 (UniProt Q16643) -0.156
CCDC85B C173 (UniProt Q15834) 0.315
LRRFIP1 C750 (UniProt Q32MZ4) 0.0825
UniProt Q15149_C3299 0.24

A stretch taken from the entries so far, as a working copy:
log2 ratio of iodoacetamide-alkyne labeling, inactive:
UniProt Q16352_C10 0.111
ETFDH C592 (UniProt Q16134) 0.0771
